{
  "source": "patent US5158935A",
  "about": "“Human epidermal growth factor having substitution at position 11” (Chiron Corporation, priority 1989, dated 1992)",
  "test_system": "Human foreskin fibroblasts",
  "assay": "mitogenic activity: half-maximal stimulation of 3H-thymidine uptake",
  "format": "cell-based",
  "conditions": "18 hours with EGF, then 24 hours 3H-thymidine pulse",
  "note": "Not every detail of the peptide structures is certain; ends, links or a residue may be inferred.",
  "data": [
    {"smiles": "CC[C@H](C)[C@@H]1NC(=O)[C@H](Cc2ccc(O)cc2)NC(=O)CNC(=O)[C@H](C(C)C)NC(=O)[C@H](C(C)C)NC(=O)[C@@H](NC(=O)[C@H](CC(N)=O)NC(=O)[C@@H]2CSSC[C@@H]3NC(=O)[C@H](Cc4ccc(O)cc4)NC(=O)CNC(=O)[C@H](CC(=O)O)NC(=O)[C@H](Cc4c[nH]cn4)NC(=O)[C@H](CO)NC(=O)[C@H](CC(C)C)NC(=O)[C@@H]4CCCN4C(=O)[C@@H](NC(=O)[C@H](CCC(=O)O)NC(=O)[C@H](CO)NC(=O)[C@H](CC(=O)O)NC(=O)[C@H](CO)NC(=O)[C@@H](N)CC(N)=O)CSSC[C@H](NC(=O)[C@H](C(C)C)NC(=O)CNC(=O)[C@H](CC(=O)O)NC(=O)[C@H](Cc4c[nH]cn4)NC(=O)[C@H](CC(C)C)NC3=O)C(=O)N[C@@H](CCSC)C(=O)N[C@@H](Cc3ccc(O)cc3)C(=O)N[C@@H]([C@@H](C)CC)C(=O)N[C@@H](CCC(=O)O)C(=O)N[C@@H](C)C(=O)N[C@@H](CC(C)C)C(=O)N[C@@H](CC(=O)O)C(=O)N[C@@H](CCCCN)C(=O)N[C@@H](Cc3ccc(O)cc3)C(=O)N[C@@H](C)C(=O)N2)CSSC[C@@H](C(=O)N[C@@H](CCC(N)=O)C(=O)N[C@@H](Cc2ccc(O)cc2)C(=O)N[C@@H](CCCNC(=N)N)C(=O)N[C@@H](CC(=O)O)C(=O)N[C@@H](CC(C)C)C(=O)N[C@@H](CCCCN)C(=O)N[C@@H](Cc2c[nH]c3ccccc23)C(=O)N[C@@H](Cc2c[nH]c3ccccc23)C(=O)N[C@@H](CCC(=O)O)C(=O)N[C@@H](CC(C)C)C(=O)N[C@@H](CCCNC(=N)N)C(=O)O)NC(=O)[C@H](CCCNC(=N)N)NC(=O)[C@H](CCC(=O)O)NC(=O)CNC1=O", "note": "[EGF-Asp11]", "values": [
      {"measurement": "ED50 (amount necessary to achieve half-maximal stimulation of 3H-T uptake)", "value": 0.57, "unit": "ng/mL"}
    ]}
  ]
}
